In article PMC10163259, “KK-LC-1 as a therapeutic target to eliminate ALDH^+ stem cells in triple negative breast cancer” (Nature Communications, 2023):
These are yes or no findings as the source states them, for the method shown. In cells and extracts the contact can be indirect. Here binding means that the protein was enriched with, or labelled near, the bait; the list need not be complete.

Protein sequences, listed by entry. Tags and fused reporters are not part of them. Residues count along the entry.
UniProt Q14517, residues 22-4588: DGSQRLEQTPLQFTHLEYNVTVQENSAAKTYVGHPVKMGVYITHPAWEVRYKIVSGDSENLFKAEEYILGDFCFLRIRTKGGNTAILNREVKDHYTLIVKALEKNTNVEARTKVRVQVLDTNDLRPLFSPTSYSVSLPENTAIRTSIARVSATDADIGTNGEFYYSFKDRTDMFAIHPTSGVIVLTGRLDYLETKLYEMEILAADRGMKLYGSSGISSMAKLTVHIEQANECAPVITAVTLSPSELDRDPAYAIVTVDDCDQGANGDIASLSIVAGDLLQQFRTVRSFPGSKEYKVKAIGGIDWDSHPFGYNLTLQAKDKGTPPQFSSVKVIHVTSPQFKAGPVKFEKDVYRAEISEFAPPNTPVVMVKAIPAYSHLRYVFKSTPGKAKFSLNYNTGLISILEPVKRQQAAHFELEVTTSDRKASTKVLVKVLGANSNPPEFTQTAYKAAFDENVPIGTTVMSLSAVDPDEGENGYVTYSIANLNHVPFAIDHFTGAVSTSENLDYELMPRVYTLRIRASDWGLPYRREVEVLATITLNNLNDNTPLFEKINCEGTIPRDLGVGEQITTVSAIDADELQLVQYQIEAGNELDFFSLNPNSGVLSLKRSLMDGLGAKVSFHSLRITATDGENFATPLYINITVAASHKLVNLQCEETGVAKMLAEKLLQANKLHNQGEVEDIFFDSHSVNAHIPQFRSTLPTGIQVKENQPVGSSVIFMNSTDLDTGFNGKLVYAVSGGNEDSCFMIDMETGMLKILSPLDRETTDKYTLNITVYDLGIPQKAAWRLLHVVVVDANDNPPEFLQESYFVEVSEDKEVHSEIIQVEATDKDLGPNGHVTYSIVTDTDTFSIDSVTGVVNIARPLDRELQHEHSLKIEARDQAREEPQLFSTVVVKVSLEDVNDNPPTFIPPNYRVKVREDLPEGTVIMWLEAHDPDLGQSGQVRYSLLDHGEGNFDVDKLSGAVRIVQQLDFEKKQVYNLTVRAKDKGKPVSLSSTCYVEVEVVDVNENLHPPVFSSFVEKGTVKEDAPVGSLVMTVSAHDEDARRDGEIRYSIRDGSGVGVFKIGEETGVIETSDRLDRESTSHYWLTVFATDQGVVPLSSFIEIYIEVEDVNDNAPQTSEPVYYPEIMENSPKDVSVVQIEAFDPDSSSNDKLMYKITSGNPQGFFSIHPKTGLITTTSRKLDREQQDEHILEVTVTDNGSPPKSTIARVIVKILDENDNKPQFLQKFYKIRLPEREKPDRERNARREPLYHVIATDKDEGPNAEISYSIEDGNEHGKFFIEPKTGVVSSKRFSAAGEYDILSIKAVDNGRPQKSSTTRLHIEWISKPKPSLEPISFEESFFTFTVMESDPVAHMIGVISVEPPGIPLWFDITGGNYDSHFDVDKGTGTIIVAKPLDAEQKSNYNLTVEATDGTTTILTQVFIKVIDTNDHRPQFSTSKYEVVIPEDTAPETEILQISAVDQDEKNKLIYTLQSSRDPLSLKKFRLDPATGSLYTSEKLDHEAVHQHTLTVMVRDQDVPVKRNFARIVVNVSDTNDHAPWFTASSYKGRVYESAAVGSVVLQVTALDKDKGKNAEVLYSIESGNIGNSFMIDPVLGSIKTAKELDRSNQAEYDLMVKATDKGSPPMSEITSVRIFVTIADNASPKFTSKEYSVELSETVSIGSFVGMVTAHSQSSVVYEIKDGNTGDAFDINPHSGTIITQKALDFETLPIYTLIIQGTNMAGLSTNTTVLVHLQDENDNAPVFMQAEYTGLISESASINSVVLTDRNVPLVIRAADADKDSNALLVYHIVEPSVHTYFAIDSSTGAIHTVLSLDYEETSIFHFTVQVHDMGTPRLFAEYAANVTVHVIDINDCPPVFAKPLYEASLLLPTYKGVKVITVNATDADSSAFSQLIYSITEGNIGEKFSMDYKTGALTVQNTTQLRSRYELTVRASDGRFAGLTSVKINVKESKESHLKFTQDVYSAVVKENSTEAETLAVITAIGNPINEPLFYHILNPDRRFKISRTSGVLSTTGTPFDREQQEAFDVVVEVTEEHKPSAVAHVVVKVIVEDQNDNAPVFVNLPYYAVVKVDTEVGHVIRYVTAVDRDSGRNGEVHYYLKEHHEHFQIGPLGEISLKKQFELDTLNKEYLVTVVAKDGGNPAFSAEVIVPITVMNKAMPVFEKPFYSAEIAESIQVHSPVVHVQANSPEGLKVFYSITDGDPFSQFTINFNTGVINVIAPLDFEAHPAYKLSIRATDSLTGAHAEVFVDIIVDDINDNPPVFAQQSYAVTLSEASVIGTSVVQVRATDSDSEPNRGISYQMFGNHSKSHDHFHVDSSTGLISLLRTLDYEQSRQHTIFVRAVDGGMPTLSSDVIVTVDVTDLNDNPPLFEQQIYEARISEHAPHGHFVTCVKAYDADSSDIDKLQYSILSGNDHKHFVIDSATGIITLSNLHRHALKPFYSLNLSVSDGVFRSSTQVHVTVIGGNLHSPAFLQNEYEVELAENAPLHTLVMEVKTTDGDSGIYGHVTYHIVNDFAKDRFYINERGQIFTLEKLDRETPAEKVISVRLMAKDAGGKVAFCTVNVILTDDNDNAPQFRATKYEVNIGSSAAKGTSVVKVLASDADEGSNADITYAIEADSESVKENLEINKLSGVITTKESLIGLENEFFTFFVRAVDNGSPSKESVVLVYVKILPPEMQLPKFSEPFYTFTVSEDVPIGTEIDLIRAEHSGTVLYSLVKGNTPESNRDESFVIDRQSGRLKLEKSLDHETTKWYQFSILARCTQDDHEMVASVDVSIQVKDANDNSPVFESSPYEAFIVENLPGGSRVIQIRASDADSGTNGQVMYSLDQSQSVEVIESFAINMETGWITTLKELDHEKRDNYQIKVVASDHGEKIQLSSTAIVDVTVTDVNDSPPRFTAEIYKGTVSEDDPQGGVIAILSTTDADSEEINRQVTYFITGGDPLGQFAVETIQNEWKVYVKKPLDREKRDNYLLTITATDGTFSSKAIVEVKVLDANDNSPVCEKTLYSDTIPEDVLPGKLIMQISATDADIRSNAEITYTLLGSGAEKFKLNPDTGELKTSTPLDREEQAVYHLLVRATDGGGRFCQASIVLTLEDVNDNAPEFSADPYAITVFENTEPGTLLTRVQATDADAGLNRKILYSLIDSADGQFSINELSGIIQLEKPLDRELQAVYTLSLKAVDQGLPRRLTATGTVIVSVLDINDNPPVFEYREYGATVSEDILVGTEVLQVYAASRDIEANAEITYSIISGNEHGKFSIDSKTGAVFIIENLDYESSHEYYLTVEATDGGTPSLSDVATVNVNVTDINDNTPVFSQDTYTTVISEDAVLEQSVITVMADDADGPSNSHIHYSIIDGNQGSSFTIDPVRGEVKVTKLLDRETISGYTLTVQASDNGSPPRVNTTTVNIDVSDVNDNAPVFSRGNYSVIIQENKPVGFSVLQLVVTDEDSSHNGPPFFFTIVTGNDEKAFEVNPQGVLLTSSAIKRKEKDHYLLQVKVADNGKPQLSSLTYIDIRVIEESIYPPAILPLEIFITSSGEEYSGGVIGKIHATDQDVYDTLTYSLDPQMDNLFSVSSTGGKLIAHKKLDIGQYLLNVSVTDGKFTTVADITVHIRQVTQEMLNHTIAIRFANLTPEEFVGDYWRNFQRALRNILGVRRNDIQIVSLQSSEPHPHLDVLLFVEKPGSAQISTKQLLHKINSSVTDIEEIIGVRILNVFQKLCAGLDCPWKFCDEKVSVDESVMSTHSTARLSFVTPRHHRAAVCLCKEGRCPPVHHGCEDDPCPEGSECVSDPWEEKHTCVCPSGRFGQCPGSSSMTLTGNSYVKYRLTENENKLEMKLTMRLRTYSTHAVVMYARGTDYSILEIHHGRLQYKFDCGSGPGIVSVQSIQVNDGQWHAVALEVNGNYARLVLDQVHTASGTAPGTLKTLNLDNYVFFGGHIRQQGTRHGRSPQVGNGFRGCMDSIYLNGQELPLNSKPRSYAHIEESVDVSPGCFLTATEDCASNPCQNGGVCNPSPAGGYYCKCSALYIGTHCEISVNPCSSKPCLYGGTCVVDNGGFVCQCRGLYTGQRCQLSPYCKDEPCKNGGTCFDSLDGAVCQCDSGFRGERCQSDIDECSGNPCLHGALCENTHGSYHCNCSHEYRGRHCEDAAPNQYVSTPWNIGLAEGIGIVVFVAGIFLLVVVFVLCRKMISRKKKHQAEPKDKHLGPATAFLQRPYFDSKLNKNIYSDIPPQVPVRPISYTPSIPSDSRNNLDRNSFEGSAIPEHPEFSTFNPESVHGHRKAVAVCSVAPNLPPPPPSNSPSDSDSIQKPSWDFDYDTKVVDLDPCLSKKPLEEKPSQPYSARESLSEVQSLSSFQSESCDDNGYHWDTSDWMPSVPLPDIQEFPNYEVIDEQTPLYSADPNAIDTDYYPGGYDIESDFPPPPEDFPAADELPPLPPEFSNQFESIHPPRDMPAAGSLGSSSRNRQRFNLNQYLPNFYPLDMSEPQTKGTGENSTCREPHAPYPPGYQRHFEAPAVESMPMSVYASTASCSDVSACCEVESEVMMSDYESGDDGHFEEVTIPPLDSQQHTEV

Target: T1, Kita-Kyushu lung cancer antigen-1 (KK-LC-1) (human (endogenous in MDA-MB-231 and MDA-MB-468)) (UniProt Q5H943)
T1 sequence: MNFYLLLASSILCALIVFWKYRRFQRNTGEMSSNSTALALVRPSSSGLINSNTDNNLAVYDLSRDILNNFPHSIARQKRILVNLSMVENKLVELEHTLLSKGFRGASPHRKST
Assay: affinity purification with mass spectrometry; immunoprecipitation from MDA-MB-231 cells with anti-KK-LC-1 antibody and anti-IgG control; whole gel lanes analysed by mass spectrometry; proteins also found with anti-IgG removed; hits compared with known Hippo pathway components

**Q.** With FAT1 (from UniProt Q14517 22-4588) as the substance, how does the binding read?
**A.** binds
